Measured values: the supplement of paper PMC5393889
Some of the results follow.

System: Caenorhabditis elegans N2
Experiment: aldicarb interaction hit call (worm growth perturbed in combination with 10 uM aldicarb in both replicates, no effect as single agent) (binary (1 = interacts)); higher = interacts with aldicarb (growth perturbed)
Conditions: first compound 1.5 µM; aldicarb concentration 10 µM; 6 days; 20 °C

SMILES | aldicarb interaction hit call
Brc1ccc2[nH]c3c(c2c1)CCCC3NCCc1ccccc1.Cl (stereo not drawn) [wact-389] + CNC(=O)O/N=C/C(C)(C)SC [aldicarb] | inactive: 0
CCNCCOc1ccc(Cl)c2ccccc12.Cl [wact-163] + CNC(=O)O/N=C/C(C)(C)SC [aldicarb] | inactive: 0
O=C(NCc1cccc(C(F)(F)F)c1)c1nc(-c2ccccc2)no1 [wact-201] + CNC(=O)O/N=C/C(C)(C)SC [aldicarb] | inactive: 0
CCCCNC(=O)c1ccccc1I [wact-52] + CNC(=O)O/N=C/C(C)(C)SC [aldicarb] | inactive: 0
CCn1cc(CN2CCCC(C(=O)c3ccc(-c4ccccc4)cc3)C2)cn1 (stereo not drawn) [wact-314] + CNC(=O)O/N=C/C(C)(C)SC [aldicarb] | inactive: 0
O=C(Nc1ccc(-c2noc(CCc3ccccc3)n2)cc1)c1cccs1 [wact-226] + CNC(=O)O/N=C/C(C)(C)SC [aldicarb] | inactive: 0
Cc1ccc(Cl)cc1N/C=C/C(=O)c1ccccc1 [wact-43] + CNC(=O)O/N=C/C(C)(C)SC [aldicarb] | inactive: 0
O=C(NC(=S)Nc1sc2c(c1C(=O)O)CCCC2)c1ccccc1 [wact-451] + CNC(=O)O/N=C/C(C)(C)SC [aldicarb] | inactive: 0
C/C(=N\N=C(/C)c1cccs1)c1cccs1 [wact-18] + CNC(=O)O/N=C/C(C)(C)SC [aldicarb] | inactive: 0
CN(Cc1ccc2cc(F)ccc2n1)CC1CCN(CCc2cccc(F)c2)CC1 [wact-287] + CNC(=O)O/N=C/C(C)(C)SC [aldicarb] | inactive: 0
CN(CC1CCN(CCc2ccc(Cl)cc2)CC1)C1CCC1 [wact-268] + CNC(=O)O/N=C/C(C)(C)SC [aldicarb] | inactive: 0
Cc1cccc(-c2ccc(NC(=O)C3CCN(CC4CCOC4)CC3)cc2)c1 (stereo not drawn) [wact-240] + CNC(=O)O/N=C/C(C)(C)SC [aldicarb] | inactive: 0
CCNCc1ccc(-c2ccc(F)c(Cl)c2)o1.Cl [wact-186] + CNC(=O)O/N=C/C(C)(C)SC [aldicarb] | inactive: 0
COc1ccc(/C=C/c2nc3ccccc3o2)cc1 [wact-382] + CNC(=O)O/N=C/C(C)(C)SC [aldicarb] | inactive: 0
CCCOc1ccc(S(=O)(=O)N2CCCCC2)cc1C [wact-231] + CNC(=O)O/N=C/C(C)(C)SC [aldicarb] | inactive: 0
Cc1ccc(-c2nc(-c3ccc(Cl)cc3)no2)cc1 [wact-445] + CNC(=O)O/N=C/C(C)(C)SC [aldicarb] | active: 1
CC(Oc1cccc(Cl)c1)c1nc(-c2ccncc2)no1 (stereo not drawn) [wact-83] + CNC(=O)O/N=C/C(C)(C)SC [aldicarb] | inactive: 0
COc1cc(NC(=O)COc2cc(C)ccc2C)c(C(=O)O)cc1OC [wact-478] + CNC(=O)O/N=C/C(C)(C)SC [aldicarb] | inactive: 0
CN(CCc1cnn(C)c1)Cc1nc(-c2ccc(C(F)(F)F)cc2)no1 [wact-269] + CNC(=O)O/N=C/C(C)(C)SC [aldicarb] | inactive: 0

SMILES | aldicarb interaction hit call
O=C(Nc1ccc(Cl)cc1)c1cccs1 [wact-380] + CNC(=O)O/N=C/C(C)(C)SC [aldicarb] | inactive: 0
CC(=O)Nc1ccc(NC(=O)CC2Sc3ccc(C(F)(F)F)cc3NC2=O)cc1 (stereo not drawn) [wact-607] + CNC(=O)O/N=C/C(C)(C)SC [aldicarb] | inactive: 0
O=C(c1cc(COc2ccc3ncccc3c2)on1)N1CCCC1c1ccc(F)cc1 (stereo not drawn) [wact-277] + CNC(=O)O/N=C/C(C)(C)SC [aldicarb] | inactive: 0
Cc1oc(-c2ccc(-c3ccccc3)cc2)nc1CN(C)C(C)C [wact-337] + CNC(=O)O/N=C/C(C)(C)SC [aldicarb] | inactive: 0
O=C(c1csc(-c2ccc(C(F)(F)F)cc2)n1)N1CCC2(CCCN(CC3CC3)C2)C1 (stereo not drawn) [wact-299] + CNC(=O)O/N=C/C(C)(C)SC [aldicarb] | inactive: 0
Fc1ccc(NC2CCCN(Cc3ccc(OC(F)F)cc3)C2)cc1 (stereo not drawn) [wact-260] + CNC(=O)O/N=C/C(C)(C)SC [aldicarb] | inactive: 0
c1ccc(-c2noc(-c3ccccc3)n2)cc1 [wact-589] + CNC(=O)O/N=C/C(C)(C)SC [aldicarb] | inactive: 0
Fc1ccc(N2CCN(Cc3cccc(Cl)c3Cl)CC2)cc1 [wact-28] + CNC(=O)O/N=C/C(C)(C)SC [aldicarb] | inactive: 0
Cc1cc(C)cc(N(CC(=O)NC2CC3CCC2C3)S(C)(=O)=O)c1 (stereo not drawn) [wact-466] + CNC(=O)O/N=C/C(C)(C)SC [aldicarb] | inactive: 0
Clc1cc(Br)ccc1OCCCCN1CCNCC1.O=C(O)C(=O)O [wact-79] + CNC(=O)O/N=C/C(C)(C)SC [aldicarb] | inactive: 0
CC(C)COc1ccc(-c2nc(-c3ccncc3)no2)cc1 [wact-561] + CNC(=O)O/N=C/C(C)(C)SC [aldicarb] | inactive: 0
Cc1sc2ncnc(NCCc3ccccc3)c2c1C [wact-429] + CNC(=O)O/N=C/C(C)(C)SC [aldicarb] | inactive: 0
COc1ccc(OC)c(CN(C)CC2CCN(CCc3cccc(F)c3)CC2)c1 [wact-326] + CNC(=O)O/N=C/C(C)(C)SC [aldicarb] | inactive: 0
Cc1ccn2cc(-c3ccc(F)cc3)nc2c1 [wact-436] + CNC(=O)O/N=C/C(C)(C)SC [aldicarb] | inactive: 0
O=C(NC(=S)Nc1ccc(Cl)c(Cl)c1)c1ccccc1I [wact-369] + CNC(=O)O/N=C/C(C)(C)SC [aldicarb] | inactive: 0
O=C(Nc1ccc(Oc2ccc(Br)cc2)cc1)c1ccccc1[N+](=O)[O-] [wact-66] + CNC(=O)O/N=C/C(C)(C)SC [aldicarb] | inactive: 0
Cc1oc(-c2ccc(-c3ccccc3)cc2)nc1CN1CCCCC1CCO (stereo not drawn) [wact-279] + CNC(=O)O/N=C/C(C)(C)SC [aldicarb] | inactive: 0
CCCCNC(=S)NC(=O)c1ccccc1 [wact-486] + CNC(=O)O/N=C/C(C)(C)SC [aldicarb] | inactive: 0
COc1cc2c(cc1CNC1CCCN(c3ccc(C(F)(F)F)cn3)C1)OCO2 (stereo not drawn) [wact-288] + CNC(=O)O/N=C/C(C)(C)SC [aldicarb] | inactive: 0

For reference, some entries already given:
SMILES | aldicarb interaction hit call
c1ccc(-c2noc(-c3ccccc3)n2)cc1 [wact-589] + CNC(=O)O/N=C/C(C)(C)SC [aldicarb] | inactive: 0
Fc1ccc(N2CCN(Cc3cccc(Cl)c3Cl)CC2)cc1 [wact-28] + CNC(=O)O/N=C/C(C)(C)SC [aldicarb] | inactive: 0
Cc1cc(C)cc(N(CC(=O)NC2CC3CCC2C3)S(C)(=O)=O)c1 (stereo not drawn) [wact-466] + CNC(=O)O/N=C/C(C)(C)SC [aldicarb] | inactive: 0
Clc1cc(Br)ccc1OCCCCN1CCNCC1.O=C(O)C(=O)O [wact-79] + CNC(=O)O/N=C/C(C)(C)SC [aldicarb] | inactive: 0
CC(C)COc1ccc(-c2nc(-c3ccncc3)no2)cc1 [wact-561] + CNC(=O)O/N=C/C(C)(C)SC [aldicarb] | inactive: 0
Cc1sc2ncnc(NCCc3ccccc3)c2c1C [wact-429] + CNC(=O)O/N=C/C(C)(C)SC [aldicarb] | inactive: 0
COc1ccc(OC)c(CN(C)CC2CCN(CCc3cccc(F)c3)CC2)c1 [wact-326] + CNC(=O)O/N=C/C(C)(C)SC [aldicarb] | inactive: 0
Cc1ccn2cc(-c3ccc(F)cc3)nc2c1 [wact-436] + CNC(=O)O/N=C/C(C)(C)SC [aldicarb] | inactive: 0
O=C(NC(=S)Nc1ccc(Cl)c(Cl)c1)c1ccccc1I [wact-369] + CNC(=O)O/N=C/C(C)(C)SC [aldicarb] | inactive: 0
